According to PubChem BioAssay (EPA / NIEHS):
For part of these data: The hits were mostly taken out for another list; the other results follow. Records with an inconclusive call do not appear. The list shows a part of the results, in another mix than the full data. A structure can be active in one record and inactive in another. Active and inactive are the calls of the source. The calls were made as follows: active = hit-call score of the fitted dose curve at least 0.9, where 1 is the maximum; inconclusive = response in the unintended direction; inactive = score below 0.9.

By UniProt entry, the sequences of proteins in these tests, tags left out.
UniProt P04637, whole entry, looked up: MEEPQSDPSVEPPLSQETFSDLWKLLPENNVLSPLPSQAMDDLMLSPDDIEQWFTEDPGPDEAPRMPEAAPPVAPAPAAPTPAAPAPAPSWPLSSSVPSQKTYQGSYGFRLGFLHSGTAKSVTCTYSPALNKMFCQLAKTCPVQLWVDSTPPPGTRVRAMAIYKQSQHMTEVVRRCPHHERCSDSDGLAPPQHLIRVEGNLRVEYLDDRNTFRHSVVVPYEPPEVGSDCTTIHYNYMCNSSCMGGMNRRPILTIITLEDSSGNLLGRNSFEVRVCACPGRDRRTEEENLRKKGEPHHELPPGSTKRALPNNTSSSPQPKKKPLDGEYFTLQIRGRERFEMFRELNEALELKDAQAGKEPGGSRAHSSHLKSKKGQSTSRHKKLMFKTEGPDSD

target: Cellular tumor antigen p53 (Homo sapiens) (UniProt P04637); test: TOX21_p53_BLA_p4_ratio: Tox21 HCT-116 p53 Agonism Beta-lactamase Assay, Ratio, Phase 4 (AID 2283601)
Summary of the method: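 Signal is the blue/green (460nm/530nm) ratio of cleaved versus uncleaved CCF4-AM substrate, read after 2 h substrate loading. Cells were HCT116 carrying the p53-responsive beta-lactamase reporter, dosed 16 h at 37C, 5% CO2; CellTiter-Glo measured in parallel.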

| SMILES | outcome | AC50 |
| --- | --- | --- |
| c1ccc(C2(N3CCCC3)CCCCC2)cc1 | inactive | – |
| Nc1ccc(-c2ccc(N)c(Cl)c2)cc1Cl | – | active: 20.3 µM |
| CN1C[C@H](CNC(=O)OCc2ccccc2)C[C@@H]2c3cccc4c3c(cn4C)C[C@H]21 | inactive | – |
| O=[N+]([O-])c1ccc(Cl)cc1 | inactive | – |

tested on: not listed separately; test: ACEA_AR_agonist_AUC_viability: ACEA Biosciences xCELLigence Real-Time Cell Analysis on Androgen Receptor Agonism for Viability (AID 2283775)
Summary of the method: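 Real-time impedance tracking of 22Rv1 growth, readings every 5 min for 5 h then hourly; area-under-curve viability endpoint at 80 hours, relative to DMSO. Compounds at eight concentrations, 1:4 steps, top 100 uM, n = 2.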

| SMILES | outcome |
| --- | --- |
| CCCCC(CC)COC(=O)c1c(Br)c(Br)c(Br)c(Br)c1C(=O)OCC(CC)CCCC (centres undefined) | inactive |
| Oc1ccc(Cl)cc1 | inactive |
| C1CCC(NC2CCCCC2)CC1 | inactive |
| c1ccc2c(c1)sc1ccccc12 | inactive |
| COC(N)=O | inactive |
| C[C@]12CC[C@H](O)CC1=CC[C@@H]1[C@@H]2CC[C@]2(C)C(=O)CC[C@@H]12 | inactive |
| O=C(NC(=O)c1c(F)cccc1F)Nc1ccc(Cl)cc1 | inactive |
| O=C(CBr)c1ccc(O)cc1 | inactive |
| O=S1(=O)OCC2C(CO1)C1(Cl)C(Cl)=C(Cl)C2(Cl)C1(Cl)Cl (centres undefined) | inactive |
| CCC1CCC(=O)O1 (centres undefined) | inactive |
| CNC(=O)O/N=C/C(C)(C)S(C)=O (centres undefined) | inactive |
| Cc1cc(Cl)ccc1O | inactive |
| Cc1ccc(OP(=O)(Oc2ccc(C)cc2)Oc2ccc(C)cc2)cc1 (tested in a mixture with another compound) | inactive |
| CCOP(=O)(OCC)Oc1ccc([N+](=O)[O-])cc1 | inactive |
| CCOC(=O)NC(=S)Nc1ccccc1NC(=S)NC(=O)OCC | inactive |

tested on: not listed separately; test: ACEA_AR_antagonist_AUC_viability: ACEA Biosciences xCELLigence Real-Time Cell Analysis on Androgen Receptor Antagonism for Viability (AID 2283776);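 also: 22Rv1 human prostate cancer cells growing on impedance electrode plates; hits lower the growth signal relative to DMSO meaning cytotoxicity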
Summary of the method: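 Real-time electrical impedance tracks 22Rv1 proliferation after continuous compound exposure (top 100 uM final, 1:4 steps, 8 concentrations). The 80 h area-under-curve serves as the cytotoxicity readout relative to DMSO.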

| SMILES | outcome |
| --- | --- |
| c1ccc2c(c1)sc1ccccc12 | inactive |
| C[C@]12CC[C@H](O)CC1=CC[C@@H]1[C@@H]2CC[C@]2(C)C(=O)CC[C@@H]12 | inactive |
| O=[N+]([O-])c1ccc(Cl)cc1 | inactive |
| Cc1ccc(OP(=O)(Oc2ccc(C)cc2)Oc2ccc(C)cc2)cc1 (tested in a mixture with another compound) | inactive |
| CCOP(=O)(OCC)Oc1ccc([N+](=O)[O-])cc1 | inactive |
